The results in this text go back to publication PMC9339965.

Chains of the proteins cited; added tags and fusions are not shown. Lines headed by an entry give the natural chain unless they say otherwise; changes in a name come on top. A line that says so, or that is headed by a name, gives the form on record, which may keep a tag or linker. Residues count along the entry.
UniProt Q92838: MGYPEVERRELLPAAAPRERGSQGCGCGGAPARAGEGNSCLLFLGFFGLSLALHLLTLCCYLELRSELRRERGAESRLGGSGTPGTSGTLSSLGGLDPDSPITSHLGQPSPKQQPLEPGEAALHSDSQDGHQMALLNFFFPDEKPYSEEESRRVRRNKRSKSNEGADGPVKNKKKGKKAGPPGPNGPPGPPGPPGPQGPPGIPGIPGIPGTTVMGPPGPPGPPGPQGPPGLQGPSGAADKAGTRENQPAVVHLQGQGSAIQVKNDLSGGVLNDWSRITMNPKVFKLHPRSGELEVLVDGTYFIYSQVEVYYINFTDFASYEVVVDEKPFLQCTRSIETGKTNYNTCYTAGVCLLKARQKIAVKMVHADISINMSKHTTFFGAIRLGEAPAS
soluble Flag-EDA, wild type (starting at Ser66): residues 66-391 of Q92838
soluble Flag-EDA1-Arg156Cys (starting at Ser66) (Q92838-1, form named): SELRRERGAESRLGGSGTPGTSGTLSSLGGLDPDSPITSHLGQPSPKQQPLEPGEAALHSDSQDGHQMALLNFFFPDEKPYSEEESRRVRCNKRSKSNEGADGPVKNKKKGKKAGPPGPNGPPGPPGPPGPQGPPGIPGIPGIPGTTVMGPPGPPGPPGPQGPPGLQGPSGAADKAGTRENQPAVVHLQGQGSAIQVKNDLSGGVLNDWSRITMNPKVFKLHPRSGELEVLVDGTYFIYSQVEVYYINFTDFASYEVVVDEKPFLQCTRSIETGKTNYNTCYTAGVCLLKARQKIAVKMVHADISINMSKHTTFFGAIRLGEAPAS
soluble Flag-EDA1-Ser125Cys (starting at Ser66) (Q92838-1, form named): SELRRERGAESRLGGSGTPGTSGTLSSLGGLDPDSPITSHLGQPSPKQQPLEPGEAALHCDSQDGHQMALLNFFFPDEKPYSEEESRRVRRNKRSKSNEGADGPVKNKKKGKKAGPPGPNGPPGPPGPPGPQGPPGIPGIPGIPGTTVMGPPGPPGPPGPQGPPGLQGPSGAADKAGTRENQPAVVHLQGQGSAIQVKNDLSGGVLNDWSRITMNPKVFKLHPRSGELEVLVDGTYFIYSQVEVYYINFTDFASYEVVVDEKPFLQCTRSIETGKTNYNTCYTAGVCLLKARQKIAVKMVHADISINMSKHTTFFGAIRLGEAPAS
soluble Flag-EDA1-Arg156His (starting at Ser66) (Q92838-1, form named): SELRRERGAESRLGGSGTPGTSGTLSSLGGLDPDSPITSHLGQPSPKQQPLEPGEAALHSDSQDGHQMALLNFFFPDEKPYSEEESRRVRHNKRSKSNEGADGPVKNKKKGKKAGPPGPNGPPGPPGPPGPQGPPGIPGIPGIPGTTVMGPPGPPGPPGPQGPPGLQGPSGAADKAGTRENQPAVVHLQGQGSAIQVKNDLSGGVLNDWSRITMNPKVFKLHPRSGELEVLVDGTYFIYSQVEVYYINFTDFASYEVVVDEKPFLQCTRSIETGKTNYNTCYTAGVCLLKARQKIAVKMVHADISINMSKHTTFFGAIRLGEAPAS
soluble Flag-EDA1-Arg153Cys (starting at Ser66) (Q92838-1, form named): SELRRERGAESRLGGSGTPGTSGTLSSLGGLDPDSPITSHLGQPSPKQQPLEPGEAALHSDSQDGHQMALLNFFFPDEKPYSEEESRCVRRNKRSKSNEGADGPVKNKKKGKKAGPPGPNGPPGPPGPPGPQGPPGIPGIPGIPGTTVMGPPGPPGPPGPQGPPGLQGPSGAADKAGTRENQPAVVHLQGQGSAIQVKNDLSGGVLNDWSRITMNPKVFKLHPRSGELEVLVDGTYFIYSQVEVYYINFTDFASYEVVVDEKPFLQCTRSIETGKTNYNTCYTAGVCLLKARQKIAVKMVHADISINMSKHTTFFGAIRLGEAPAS
full-length EDA1-Gly176Val, on HEK 293T cells (Q92838-1, form named): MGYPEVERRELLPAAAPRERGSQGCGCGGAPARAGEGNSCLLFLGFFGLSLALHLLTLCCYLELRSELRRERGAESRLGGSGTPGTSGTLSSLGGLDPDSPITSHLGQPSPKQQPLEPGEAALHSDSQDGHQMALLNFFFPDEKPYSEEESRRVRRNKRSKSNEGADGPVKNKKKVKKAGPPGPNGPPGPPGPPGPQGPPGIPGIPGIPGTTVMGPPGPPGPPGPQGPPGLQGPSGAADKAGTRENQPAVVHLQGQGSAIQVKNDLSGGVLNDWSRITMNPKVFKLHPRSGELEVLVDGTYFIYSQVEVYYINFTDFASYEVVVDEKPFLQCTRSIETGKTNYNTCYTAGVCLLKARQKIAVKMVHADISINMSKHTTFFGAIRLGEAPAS

No constants are given. Whether binding was seen depends on the method and setting. For some of these results: Binding seen in cells or lysates may run through a third protein. Some entries that bind do so weakly or less than the wild type. For some of these results: Tags and fused reporters may be left off the sequences shown.

The target in assay [1] is soluble Flag-EDA1-Arg156Cys (starting at Ser66) (human) (UniProt Q92838). Kind of assay: non-reducing SDS-PAGE and Western blot (inter-chain disulfide bonds); anti-Flag immunoprecipitates of conditioned medium, run without DTT against with DTT; Western blot with anti-Flag M2. For orientation: Immunoblotting shows a protein as a band on a membrane.
A further assay deals with T1, EDAR-Fc (UniProt Q9UNE0).
T1 sequence: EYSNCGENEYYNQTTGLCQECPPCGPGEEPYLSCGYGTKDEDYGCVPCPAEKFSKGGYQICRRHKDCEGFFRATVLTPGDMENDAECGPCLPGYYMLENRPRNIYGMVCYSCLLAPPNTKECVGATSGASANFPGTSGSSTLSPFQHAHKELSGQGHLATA
Put plainly: pull-down; conditioned medium of transfected HEK 293T cells on beads coupled to EDAR-Fc (TACI-Fc beads as control); washed, eluted with 50 mM Na-citrate pH 2.7; Western blot with anti-EDA Renzo-2; the paper calls it co-immunoprecipitation; only the target purified.

Assay [2] concerns the target soluble Flag-EDA1-Ser125Cys (starting at Ser66) (human) (UniProt Q92838). Put plainly: non-reducing SDS-PAGE and Western blot (inter-chain disulfide bonds); anti-Flag immunoprecipitates of conditioned medium, run without DTT against with DTT; Western blot with anti-Flag M2.
Assay [3] concerns the target soluble Flag-EDA1-Arg153Cys (starting at Ser66) (human) (UniProt Q92838). Described as above.
Assay [4] has as its target full-length EDA1, wild type, on HEK 293T cells (human) (UniProt Q92838). Put plainly: flow cytometry on cells; HEK 293T cells transfected with full-length EDA (WT or variants), 3 days after transfection; stained in PBS, 5% FCS, 2 mM EDTA, 1 IU/ml liquemin with EDAR-Fc at 50 μg/ml, then phycoerythrin-coupled goat anti-human IgG; read-out geoMFI; only the binder purified. (In general: Flow cytometry measures light scatter and fluorescence of single cells or particles in a stream.)

Assay [5] deals with full-length EDA1-Gly176Val, on HEK 293T cells (human) (UniProt Q92838). The description is as above.

Turning to “soluble Flag-EDA1-Arg156Cys (starting at Ser66) (from UniProt Q92838-1 66-391) (ligand)”, the binding entry (in assay [1]; with EDAR-Fc) was “binds” throughout.

Turning to “soluble Flag-EDA, wild type (starting at Ser66) (from UniProt Q92838-1 66-391) (ligand)”, in the assay with EDAR-Fc, the binding result was “binds”.

Regarding “soluble Flag-EDA1-Ser125Cys (starting at Ser66) (from UniProt Q92838-1 66-391) (ligand)”, the binding result (in assay [2]; in the assay with EDAR-Fc) was “binds” in each case.

Consider “soluble Flag-EDA1-Arg156His (starting at Ser66) (from UniProt Q92838-1 66-391) (ligand)”, for which, in the assay with EDAR-Fc, the binding result is recorded as “binds”.

Turning to “soluble Flag-EDA1-Arg153Cys (starting at Ser66) (from UniProt Q92838-1 66-391) (ligand)”, the binding result (in assay [3]; with EDAR-Fc) was “binds” each time.

B1: EDAR-Fc (Fc fusion, UniProt Q9UNE0 27-187)
chain: EYSNCGENEYYNQTTGLCQECPPCGPGEEPYLSCGYGTKDEDYGCVPCPAEKFSKGGYQICRRHKDCEGFFRATVLTPGDMENDAECGPCLPGYYMLENRPRNIYGMVCYSCLLAPPNTKECVGATSGASANFPGTSGSSTLSPFQHAHKELSGQGHLATA
Take B1: the binding entry in assay [4] and in assay [5] was “binds” each time.
